Test results taken from the supplement of paper PMC4604168 (melanoma cell lines).
The other results are listed elsewhere or left out. Single values are uncertain, as repeats are few or missing.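 Imaging used 1,536-well plates; nuclei positive for cleaved PARP by antibody were divided by total DNA-stained nuclei to yield the apoptosis fraction. Doses for screening kept most cells viable, and cell lines differ markedly in resting and induced cleaved-PARP levels.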

Assays:
Experiment in all cases: cleaved PARP positive nuclei fraction relative to DMSO control; melanoma cells; higher = more apoptosis
Details in all cases: library dose: low library concentration; 72 h
501Mel = tested on: 501Mel
A101D = tested on: A101D
A2058 = tested on: A2058
C32 = tested on: C32
CBRC008 = tested on: CBRC008 (line from a melanoma biopsy)
CBRC014 = tested on: CBRC014 (line from a melanoma biopsy)
CBRC016 = tested on: CBRC016 (line from a melanoma biopsy)
CBRC017 = tested on: CBRC017 (line from a melanoma biopsy)
COLO792 = tested on: COLO792
COLO800 = tested on: COLO800
COLO829 = tested on: COLO829
G361 = tested on: G361
IPC-298 = tested on: IPC-298
IST-MEL1 = tested on: IST-MEL1
LB2518-MEL = tested on: LB2518-MEL
LOXIMVI = tested on: LOXIMVI

| SMILES | cleaved PARP positive nuclei fraction (501Mel) | cleaved PARP positive nuclei fraction (A101D) | cleaved PARP positive nuclei fraction (A2058) | cleaved PARP positive nuclei fraction (C32) | cleaved PARP positive nuclei fraction (CBRC008) | cleaved PARP positive nuclei fraction (CBRC014) | cleaved PARP positive nuclei fraction (CBRC016) | cleaved PARP positive nuclei fraction (CBRC017) | cleaved PARP positive nuclei fraction (COLO792) | cleaved PARP positive nuclei fraction (COLO800) | cleaved PARP positive nuclei fraction (COLO829) | cleaved PARP positive nuclei fraction (G361) | cleaved PARP positive nuclei fraction (IPC-298) | cleaved PARP positive nuclei fraction (IST-MEL1) | cleaved PARP positive nuclei fraction (LB2518-MEL) | cleaved PARP positive nuclei fraction (LOXIMVI) |
| --- | --- | --- | --- | --- | --- | --- | --- | --- | --- | --- | --- | --- | --- | --- | --- | --- |
| O=C(O)[C@@H]1[O][Sb](=[O])([O][Sb]2(=[O])[O][C@H]([C@H](O)CO)[C@H](O)[C@H](C(=O)O)[O]2)[O][C@H]([C@H](O)CO)[C@@H]1O (stereo not given in full) [stibogluconate] + O=C(Nc1ccccc1)c1cc([N+](=O)[O-])ccc1Cl [GW9662] (first compound 2 µM, partner dose 2 µM) | 72.1% | 2600% | 80.2% | 81.8% | 150% | 95.9% | 47.2% | 95.1% | 59.1% | 69.7% | 124% | 72.5% | 84.9% | 27.9% | 68.7% | 128% |
| CNC(=O)c1cc(Oc2ccc(NC(=O)Nc3ccc(Cl)c(C(F)(F)F)c3)cc2)ccn1 [sorafenib] + O=S(=O)(c1ccccc1)N(CC(F)(F)F)c1ccc(C(O)(C(F)(F)F)C(F)(F)F)cc1 [T0901317] (first compound 0.4 µM, partner dose 1.4 µM) | 64.8% | 14.4% | 40.2% | 37.8% | 59.2% | 78.8% | 34.4% | 93.8% | 177% | 63.6% | 73.6% | 88% | 152% | 42.4% | 59.3% | 225% |
| O=C(O)[C@@H]1[O][Sb](=[O])([O][Sb]2(=[O])[O][C@H]([C@H](O)CO)[C@H](O)[C@H](C(=O)O)[O]2)[O][C@H]([C@H](O)CO)[C@@H]1O (stereo not given in full) [stibogluconate] + COC(=O)c1sccc1S(=O)(=O)Nc1ccc(Nc2ccccc2)cc1OC [GSK0660] (first compound 2 µM, partner dose 1 µM) | 127% | 59.8% | 58.3% | 80.3% | 32.8% | 81.5% | 40.9% | 117% | 104% | 147% | 26.6% | 142% | 194% | 73.9% | 130% | 133% |
| CS(=O)(=O)CCNCc1ccc(-c2ccc3ncnc(Nc4ccc(OCc5cccc(F)c5)c(Cl)c4)c3c2)o1 [lapatinib] + COc1cc2ncnc(Nc3ccc(Oc4ccccc4)cc3)c2cc1OC [SrcI1] (first compound 0.8 µM, partner dose 2 µM) | 26.5% | 24.9% | 157% | 67.7% | 140% | 85.5% | 60.2% | 94.9% | 79.8% | 35.4% | 102% | 131% | 76.5% | 74.7% | 24.7% | 159% |
| CO[C@H]1C[C@@H]2CC[C@@H](C)[C@@](O)(O2)C(=O)C(=O)N2CCCC[C@H]2C(=O)O[C@H]([C@H](C)C[C@@H]2CC[C@@H](OCCO)[C@H](OC)C2)CC(=O)[C@H](C)/C=C(\C)[C@@H](O)[C@@H](OC)C(=O)[C@H](C)C[C@H](C)/C=C/C=C/C=C/1C [everolimus] + COc1cc2ncnc(Nc3ccc(Oc4ccccc4)cc3)c2cc1OC [SrcI1] (first compound 0.02 µM, partner dose 2 µM) | 80.4% | 63.9% | 132% | 172% | 169% | 101% | 14.7% | 90.1% | 186% | 150% | 75.8% | 64.5% | 123% | 117% | 108% | 79.2% |
| O=C(O)[C@@H]1[O][Sb](=[O])([O][Sb]2(=[O])[O][C@H]([C@H](O)CO)[C@H](O)[C@H](C(=O)O)[O]2)[O][C@H]([C@H](O)CO)[C@@H]1O (stereo not given in full) [stibogluconate] + COc1ccc2c(c1)CCC1C2CCC2(C)C(NCCCCCCN3C(=O)C=CC3=O)CCC12 [U73122] (first compound 2 µM, partner dose 0.4 µM) | 72% | 19.2% | 113% | 93.6% | 50.9% | 102% | 60.4% | 176% | 93.6% | 23.8% | 44.8% | 158% | 48.7% | 96.5% | 72.1% | 77.4% |
| Cc1cc(Nc2cc(N3CCN(C)CC3)nc(/C=C/c3ccccc3)n2)n[nH]1 + O=C(Nc1ccccc1)c1cc([N+](=O)[O-])ccc1Cl [GW9662] (first compound 0.04 µM, partner dose 2 µM) | 174% | 43.2% | 349% | 68.1% | 49.7% | 106% | 69.2% | 91.7% | 47.4% | 201% | 63.4% | 62.3% | 88.9% | 67% | 85.4% | 80% |
| CN1CCN(c2ccc3nc(-c4c(N)c5c(F)cccc5[nH]c4=O)[nH]c3c2)CC1 [Dovitinib] + N#Cc1c(O)c2c(-c3ccc(-c4ccccc4O)cc3)csc2[nH]c1=O [A769662] (first compound 0.1 µM, partner dose 2 µM) | 85.3% | 33.8% | 50.3% | 78.9% | 96.6% | 84.9% | 80.1% | 121% | 81.7% | 67.7% | 54.1% | 96.3% | 182% | 119% | 70.8% | 60% |
| CO[C@H]1C[C@@H]2CC[C@@H](C)[C@@](O)(O2)C(=O)C(=O)N2CCCC[C@H]2C(=O)O[C@H]([C@H](C)C[C@@H]2CC[C@@H](OCCO)[C@H](OC)C2)CC(=O)[C@H](C)/C=C(\C)[C@@H](O)[C@@H](OC)C(=O)[C@H](C)C[C@H](C)/C=C/C=C/C=C/1C [everolimus] + CCCCCCCCCCCC1=C(O)C(=O)C=C(O)C1=O [Embelin] (first compound 0.02 µM, partner dose 1.2 µM) | 113% | 62.3% | 134% | 131% | 207% | 90.9% | 68.5% | 84.2% | 254% | 77.1% | 167% | 200% | 146% | 51.6% | 78.8% | 94.5% |
| CN1CCN(c2ccc3nc(-c4c(N)c5c(F)cccc5[nH]c4=O)[nH]c3c2)CC1 [Dovitinib] + CC(C)CCN1c2nc(Nc3cc(F)c(O)c(F)c3)ncc2N(C)C(=O)C1C [BID1870] (first compound 0.1 µM, partner dose 0.2 µM) | 144% | 42.6% | 165% | 77% | 186% | 105% | 113% | 195% | 106% | 76.4% | 120% | 92.5% | 206% | 38% | 147% | 350% |
| CO[C@H]1C[C@@H]2CC[C@@H](C)[C@@](O)(O2)C(=O)C(=O)N2CCCC[C@H]2C(=O)O[C@H]([C@H](C)C[C@@H]2CC[C@@H](OCCO)[C@H](OC)C2)CC(=O)[C@H](C)/C=C(\C)[C@@H](O)[C@@H](OC)C(=O)[C@H](C)C[C@H](C)/C=C/C=C/C=C/1C [everolimus] + O=S(=O)(c1ccccc1)N(CC(F)(F)F)c1ccc(C(O)(C(F)(F)F)C(F)(F)F)cc1 [T0901317] (first compound 0.02 µM, partner dose 1.4 µM) | 284% | 33.5% | 83.1% | 71.5% | 226% | 93.9% | 88.8% | 110% | 67.9% | 95.7% | 217% | 151% | 136% | 112% | 87.5% | 108% |
| CC(C)C[C@H](NC(=O)[C@H](Cc1ccccc1)NC(=O)c1cnccn1)B(O)O [Bortezomib] + O=c1cc(-c2cccc3c2Sc2ccccc2S3)oc(N2CCOCC2)c1 [KU55933] (first compound 0.001 µM, partner dose 1 µM) | 250% | 323% | 198% | 133% | 175% | 266% | 543% | 113% | 37.9% | 55.1% | 77.2% | 1580% | 158% | 36.1% | 144% | 60.2% |
| Nc1nc(F)nc2c1ncn2[C@@H]1O[C@H](CO)[C@@H](O)[C@@H]1O [fludarabine] + CCCCCCCCCCCC1=C(O)C(=O)C=C(O)C1=O [Embelin] (first compound 0.2 µM, partner dose 1.2 µM) | 1730% | 18.2% | 88.2% | 174% | 108% | 100% | 113% | 86% | 221% | 120% | 93.1% | 86% | 78.1% | 123% | 35.6% | 33.5% |
| CNC(=O)c1cc(Oc2ccc(NC(=O)Nc3ccc(Cl)c(C(F)(F)F)c3)cc2)ccn1 [sorafenib] + COC(=O)c1sccc1S(=O)(=O)Nc1ccc(Nc2ccccc2)cc1OC [GSK0660] (first compound 0.4 µM, partner dose 1 µM) | 166% | 40.2% | 74.8% | 40.5% | 112% | 120% | 92.8% | 123% | 74.7% | 259% | 191% | 134% | 195% | 23.2% | 128% | 73.9% |
| C[C@@H](Oc1cc(-c2cnn(C3CCNCC3)c2)cnc1N)c1c(Cl)ccc(F)c1Cl [Crizotinib] + Oc1cc(-c2nc(-c3ccccc3)[nH]c2-c2ccncc2)ccc1Cl [L779450] (first compound 0.2 µM, partner dose 0.2 µM) | 87% | 6.41% | 151% | 217% | 99.8% | 103% | 84.6% | 85% | 183% | 72.8% | 119% | 157% | 81.6% | 111% | 79.7% | 62% |
